The values below are quoted from earlier work in patent publication US20050153288A1, “Methods for identifying gibberellin responsive genes using cultured vegetable cells” (priority 2001, published 2005).

Structures are written as SMILES.

In this data set the test system is α-amylase. The settings on record: cited from earlier work.

For the compound `CN[C@@H]1C[C@H]2O[C@@](C)([C@@H]1OC)n1c3ccccc3c3c4c(c5c6ccccc6n2c5c31)C(=O)NC4` [staurosporine], the “inhibition of gibberellin's induction of α-amylase” value was “hardly inhibited induction”.
